Measurements: PubChem BioAssay AID493014 (National Center for Advancing Translational Sciences (NCATS), 2011)
“And” between values parts separate entries of the source, which are not always exact repeats. Equal entries are not always repeated. Some of the results follow. Further columns of the screen follow, without active or inactive calls. Most of these compounds were active or inconclusive in the main read-out, so they are no random draw. The note in brackets gives the kind of curve behind each potency; many fits are weak.

Assay: qHTS Assay to Find Inhibitors of Chronic Active B-Cell Receptor Signaling
Conditions: ABC-DLBCL IkBa-CBG/CBR reporter, luminescence ratio (green luciferase fused to IkBa over red control in TMD8 lymphoma cells), 4 h
How it was run: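 Concentration-response series (up to 46 uM) were applied to TMD8 dual-reporter cells for 4 h at 37C with doxycycline. Green/red ratio, after filter-overlap correction, defined %Activity; red signal alone was normalised to basal cells and zero luminescence.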

[1] = measured here: CBR red luminescence, cell number
[2] = measured here: IkBa-CBG green luminescence

SMILES | AC50 [1] | AC50 [2]
Cc1occc1-c1nnc(SCC(=O)Nc2nc3ccccc3s2)o1 | 0.731 µM [rising, full curve] | 
Cc1cc(NC(=O)c2ccc(F)cc2)n(-c2ccccn2)n1 | 35.5 µM [falling, single point] | 
Cc1cccc(NC(=O)CN2C(=O)S/C(=C\c3ccc(O)c([N+](=O)[O-])c3)C2=O)c1 | 35.5 µM [falling, single point] | 
COc1ccc(Nc2nc(=O)c3cc([N+](=O)[O-])ccc3s2)cc1 | 35.5 µM [falling, single point] | 
Cc1ccc(C(=O)NC(=S)NNC(=O)COc2ccccc2C)cc1 | 12.6 µM [rising, partial curve, poor fit] | 
Cc1cccc(NC2=C(NCCO)C(=O)c3ccccc3C2=O)c1 | 0.206 µM [rising, partial curve, poor fit] | 
CCOC(=O)C1C(C(=O)OC)=C(c2ccc(OC)cc2)c2ccccc2N1S(=O)(=O)C(F)(F)F (stereo not given) | 6.51 µM [rising, single point] | 1.84 µM [falling, partial curve]
CC12CN3CCN(CC(C3)/C1=N\NC(=O)c1ccccc1N)C2 | 7.08 µM [falling, partial curve] | 
O=C(/C=C/c1ccc(O)c(O)c1)NC(=O)c1ccccc1O | 3.55 µM [falling, full curve] | 
CCNc1nc(N)nc(Oc2ccc(OCCOc3ccc(Cl)cc3Cl)nn2)n1 | 1.84 µM [rising, single point] | 
O=C(CSc1nnc(-c2ccncc2)n1Cc1ccccc1)Nc1nccs1 | 7.94 µM [falling, partial curve, poor fit] | 
CC(C)(C)OC(=O)NCCCCCNC(=O)c1nc[nH]c1C(=O)NCC(=O)OCc1ccccc1 | 14.6 µM [falling, single point] | 
C#CCOCCOCCOCCNc1nc(N2CCN(C(=O)CCCCCCCCCCNC(=O)[C@H]([C@@H](C)CC)n3cc(CCCCN=C(N)N)nn3)CC2)nc(N2CCN(C(=O)CCCCCCCCCCNC(=O)[C@H]([C@@H](C)CC)n3cc(CCCCN=C(N)N)nn3)CC2)n1 | 11.6 µM [rising, partial curve, poor fit] | 
COc1cc(/C=C/C(=O)O)ccc1OS(=O)(=O)c1c(C)c(C)cc(C)c1C | 32.6 µM [rising, single point] | 
O=C(NCc1ccc(Cl)cc1)c1cc([N+](=O)[O-])ccc1Cl | 35.5 µM [rising, single point] | 
O=C(COc1cccnc1[N+](=O)[O-])Nc1ccc(F)cc1 | 20.6 µM [falling, partial curve, poor fit] | 
COCc1nc2ccccc2n1Cc1c(F)cccc1Cl | 1.26 µM [rising, full curve, poor fit] | 
Cc1ccc(S(=O)(=O)NCCCNS(=O)(=O)c2ccc(C)cc2)cc1 | 29.1 µM [rising, partial curve, poor fit] | 
O=C(O)CCN1C(=O)C(=C2CCCCCC2)SC1=S | 11.2 µM [falling, partial curve] | 
COC(=O)[C@H](CCSC)NC(=O)Cn1ccc(NC(=O)OCc2ccccc2)nc1=O | 11.6 µM [rising, single point] | 
O=C1OC[C@H]2CCCN2C(=O)[C@@H](CC(=O)N(CCO)Cc2ccccc2)C/C=C\C[C@@H]1Cc1ccc(F)cc1 | 0.103 µM [rising, full curve, poor fit] | 

SMILES | AC50 [1] | AC50 [2]
Cc1coc2cc3oc(=O)c(CCC(=O)O)c(C)c3cc12 | 11.2 µM [falling, partial curve, poor fit] | 
O=[N+]([O-])c1cccc(-n2nnnc2CNCc2ccccc2)c1 | 0.112 µM [rising, full curve, poor fit] | 
Cc1cc(=O)[nH]c(SCCc2ccccc2)n1 | 11.2 µM [falling, single point] | 
N#Cc1ccc(COC(=O)c2cnc(Cl)c(Cl)c2)cc1 | 3.55 µM [falling, single point] | 
COc1ccccc1N(CC(=O)NC(C)(C)C)C(=O)Cn1nnc(-c2ccc(C)o2)n1 | 35.5 µM [falling, partial curve, poor fit] | 
COC(=O)C1=C(C)N(Cc2ccccc2)C(=NCc2cc(OC)c(OC)c(OC)c2)N[C@H]1CCc1ccccc1 | 22.4 µM [falling, partial curve] and 8.2 µM [falling, partial curve, poor fit] | 
CCC(=O)n1nc(-c2ccccc2)nc1NCc1ccccc1 | 16.4 µM [falling, single point] | 
Cc1ccc(C(=O)O/N=C(\N)c2ccc(C(F)(F)F)cn2)cc1 | 22.4 µM [rising, partial curve, poor fit] | 
Cc1cccc(C(=O)NC(=S)Nc2cccc3nc(C)ccc23)c1 | 35.5 µM [falling, single point] | 
O=C(CN(CC1CCCO1)C(=O)c1nsc(Cl)c1Cl)NC1CCCC1 (stereo not given) | 6.31 µM [rising, single point] | 
COc1ccc(C(=O)NC(=S)Nc2ccccc2N2CCCCC2)cc1[N+](=O)[O-] | 1.3 µM [rising, full curve, poor fit] | 
COc1cc(Cn2c(-c3nonc3N)nc3ccccc32)ccc1C | 0.291 µM [rising, full curve, poor fit] | 
O=C(CNc1ccccc1)N/N=C/c1ccc([N+](=O)[O-])cc1 | 4.11 µM [rising, full curve, poor fit] | 
O=C(COC(=O)c1c(Cl)cccc1Cl)Nc1ccccc1Br | 1.16 µM [rising, partial curve] | 
COc1ccc(-c2cc3ncccc3cn2)cc1 | 20.6 µM [falling, single point] | 
CC(C)(C)n1nc(C2CC2)cc1NC(=O)Nc1ccc(Cl)cc1 | 5.01 µM [rising, full curve, poor fit] | 
Nc1ccccc1SCC(=O)Nc1nccs1 | 35.5 µM [falling, single point] | 
Cc1ccc(NC(=O)C2CCCO2)cc1[N+](=O)[O-] (stereo not given) | 20.6 µM [rising, single point] | 16.4 µM [falling, single point]
Cc1ccccc1C(=O)NC(=S)NCC(=O)c1ccccc1 | 2.82 µM [falling, full curve, poor fit] | 
Cc1nc(NC(C)c2ccccc2)c2oc3ccccc3c2n1 (stereo not given) | 8.91 µM [falling, partial curve, poor fit] | 
Cc1cccc(C(=O)N[C@H](C(=O)Nc2ccc3c(c2)OCO3)C(C)C)c1 | 0.116 µM [rising, full curve, poor fit] | 

Shown as a markdown table: entries from further up.

| SMILES | AC50 [1] | AC50 [2] |
| --- | --- | --- |
| COc1ccccc1N(CC(=O)NC(C)(C)C)C(=O)Cn1nnc(-c2ccc(C)o2)n1 | 35.5 µM [falling, partial curve, poor fit] |  |
| COC(=O)C1=C(C)N(Cc2ccccc2)C(=NCc2cc(OC)c(OC)c(OC)c2)N[C@H]1CCc1ccccc1 | 22.4 µM [falling, partial curve] and 8.2 µM [falling, partial curve, poor fit] |  |
| CCC(=O)n1nc(-c2ccccc2)nc1NCc1ccccc1 | 16.4 µM [falling, single point] |  |
| Cc1ccc(C(=O)O/N=C(\N)c2ccc(C(F)(F)F)cn2)cc1 | 22.4 µM [rising, partial curve, poor fit] |  |
| Cc1cccc(C(=O)NC(=S)Nc2cccc3nc(C)ccc23)c1 | 35.5 µM [falling, single point] |  |
| O=C(CN(CC1CCCO1)C(=O)c1nsc(Cl)c1Cl)NC1CCCC1 (stereo not given) | 6.31 µM [rising, single point] |  |
| COc1ccc(C(=O)NC(=S)Nc2ccccc2N2CCCCC2)cc1[N+](=O)[O-] | 1.3 µM [rising, full curve, poor fit] |  |
| COc1cc(Cn2c(-c3nonc3N)nc3ccccc32)ccc1C | 0.291 µM [rising, full curve, poor fit] |  |
| O=C(CNc1ccccc1)N/N=C/c1ccc([N+](=O)[O-])cc1 | 4.11 µM [rising, full curve, poor fit] |  |
| O=C(COC(=O)c1c(Cl)cccc1Cl)Nc1ccccc1Br | 1.16 µM [rising, partial curve] |  |
| COc1ccc(-c2cc3ncccc3cn2)cc1 | 20.6 µM [falling, single point] |  |
| CC(C)(C)n1nc(C2CC2)cc1NC(=O)Nc1ccc(Cl)cc1 | 5.01 µM [rising, full curve, poor fit] |  |
| Nc1ccccc1SCC(=O)Nc1nccs1 | 35.5 µM [falling, single point] |  |
| Cc1ccc(NC(=O)C2CCCO2)cc1[N+](=O)[O-] (stereo not given) | 20.6 µM [rising, single point] | 16.4 µM [falling, single point] |
| Cc1ccccc1C(=O)NC(=S)NCC(=O)c1ccccc1 | 2.82 µM [falling, full curve, poor fit] |  |
| Cc1nc(NC(C)c2ccccc2)c2oc3ccccc3c2n1 (stereo not given) | 8.91 µM [falling, partial curve, poor fit] |  |

Next part

SMILES | AC50 [1] | AC50 [2]
CCN(C(=O)COn1nnc2ccc(S(=O)(=O)N(C)C)cc21)C1CCS(=O)(=O)C1 (stereo not given) | 0.731 µM [falling, partial curve] | 
Cc1ccc(S(=O)(=O)/N=C2/NC(=O)/C(=C/c3ccccc3)S2)cc1 | 11.2 µM [rising, single point] | 
N#C/C(=C(/O)CSc1nnc(Cc2cccs2)n1C1CCCCC1)c1nc2ccccc2[nH]1 | 8.91 µM [falling, partial curve] | 1.26 µM [rising, full curve, poor fit]
CCOC(=O)C1=CN(Cc2cccc(F)c2)S(=O)(=O)N(C)C1c1ccc2ccccc2c1 (stereo not given) | 20.6 µM [rising, single point] | 
CCn1c(SCC(O)c2ccccc2)nnc1-c1ccccc1 (stereo not given) | 14.6 µM [falling, partial curve, poor fit] | 
CCNc1nc(SCC(=O)Nc2ccc(Cl)c(Cl)c2)nc(N2CCOCC2)n1 | 31.6 µM [falling, single point] | 35.5 µM [rising, partial curve, poor fit]
COC(=O)Nc1nc2ccc(Br)cc2s1 | 1 µM [rising, full curve, poor fit] | 
Cc1nc2ccc(NC(=O)Cc3ccc(Br)cc3)cc2s1 | 5.62 µM [falling, full curve, poor fit] | 
Cc1c(Cl)cccc1NC(=O)CCN1CCCCCC1 | 6.51 µM [rising, single point] | 
Cc1cnc(NC(=O)CSC(=S)N2CCOCC2)s1 | 0.282 µM [falling, full curve, poor fit] | 
COc1ccc(C(=O)Cc2cc(OC)c(OC)cc2[N+](=O)[O-])cc1 | 3.98 µM [falling, partial curve, poor fit] | 
COc1ccc(C(=O)CC(SCC(NC(C)=O)C(=O)O)c2ccc(Cl)cc2)cc1OC (stereo not given) | 0.562 µM [falling, full curve, poor fit] | 
N#Cc1c(-c2ccco2)cc(-c2ccccc2)[nH]c1=O | 0.708 µM [falling, full curve, poor fit] | 
CCCC(=O)Nc1cccc(C(=O)Nc2nccs2)c1 | 12.6 µM [falling, partial curve] | 
Cc1cccnc1NC(=S)NC(=O)/C=C/c1ccccc1 | 17.8 µM [falling, single point] | 
C/C(=N\Nc1nc2ccccc2s1)c1cccs1 | 29.1 µM [falling, single point] | 
NC(=O)CSc1nc2c(sc3ccccc32)c(=O)n1CCCN1CCOCC1 | 31.6 µM [falling, single point] | 
Cn1c(CN2CCCC2)nc2cc(NC(=O)c3ccc(Cl)cc3)ccc21 | 17.8 µM [falling, single point] | 
Cc1ccc(S(=O)(=O)Nc2c(C)n(C)n(-c3ccccc3)c2=O)cc1C(=O)OCC(=O)N1CCCC(C)C1 (stereo not given) | 4.47 µM [rising, full curve, poor fit] | 
